Data from PubChem BioAssay AID2685 (National Center for Advancing Translational Sciences (NCATS), 2010).
Screen size: about 320,000 compounds; about 2,100 (0.66%) were called active. Inconclusive results, whose numbers are uncertain, are shown with a selection of clear calls. Calls follow the shape of the dose curve; as a rule, active = well fitted inhibition curve with a large enough effect in the signal ratio, with a control signal flat (not every such curve was filed as active); inconclusive = small, poorly fitted or top-dose-only effect, or effect the other way, or a change in a side signal; inactive = flat fitted curve, though single readings scatter; the % refers to the signal ratio. Potencies beside an inconclusive call are fits to weak or partial responses and may not hold up.

test: qHTS Assay for Lipid Storage Modulators in Drosophila S3 Cells; settings: BODIPY lipid droplet fluorescence, 18-24 h, cells fed with added oleic acid; lipid storage change, negative = inhibition: at 46.1 µM (top of the series) unless noted
Procedure, shortened: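 Drosophila S3 cells loaded with oleic acid (400 uM, as added) and compounds at several concentrations; lipid droplets imaged by 488-nm laser-scanning cytometry, 500–530 nm intensity and object ratio to cell channel. Percent activity normalized to 20 uM Triacsin C.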
% is scaled to controls: 0 for no effect and ±100 for the full control effect; potency is read from the fitted curve at half-maximal effect.

Question: For `O=C(NCC#CCOCc1ccccc1)c1ccccc1`, which lipid storage change, negative = inhibition is on record?
Answer: inconclusive: 4.76%

Question: For `Cc1ccc(S(=O)(=O)CCN2CCC(O)(c3ccccc3)CC2)cc1`, which lipid storage change, negative = inhibition is on record?
Answer: inconclusive: -49.6%

Question: For `O=C(CSc1nnc(COc2cccc3ccccc23)o1)N1c2ccccc2CCc2ccccc21`, which Potency is on record?
Answer: inconclusive: 0.651 µM [activator, single point]

Question: Which Potency does the source give for `CCCCc1nnc(NC(=O)Cc2ccc(S(=O)(=O)N3CCOCC3)s2)s1` here?
Answer: inconclusive: 4.11 µM [activator, single point]

Question: Which Potency does the source give for `CC(C)(C)c1ccc(C(=O)OCC(=O)NCc2ccco2)cc1` here?
Answer: inconclusive: 29.1 µM [falling, single point]

Question: For `CCOCc1c(C(=O)OCC(=O)/C(C#N)=C(\C)N)oc2ccccc12`, which lipid storage change, negative = inhibition is on record?
Answer: inconclusive: -18%

Question: Which lipid storage change, negative = inhibition does the source give for `CC1(C)CC2CC(C)(CN2C(=O)Cc2ccccc2)C1` (configuration not stated) here?
Answer: inactive

Question: For `Cc1cc(S(=O)(=O)N2CCOCC2)ccc1OCC(=O)Nc1ccc(F)cc1`, which lipid storage change, negative = inhibition is on record?
Answer: inconclusive: -0.797%

Question: With `COc1ccc(C)cc1-n1nnnc1SCC(=O)NC1CC1` as the compound, how does the lipid storage change, negative = inhibition read?
Answer: inconclusive: 15.4%

Question: For `CC1(C)NC(=O)N(CC(O)CN(c2cccc([N+](=O)[O-])c2)S(=O)(=O)c2ccccc2)C1=O` (configuration not stated), which Potency is on record?
Answer: inconclusive: 4.11 µM [activator, partial curve, poor fit]

Question: With `Cc1nnc(NC(=O)CSc2nc3[nH]ncc3c(=O)[nH]2)s1` as the compound, how does the Potency read?
Answer: inconclusive: 0.291 µM [falling, full curve, poor fit]

Question: For `O=C1CCc2cc(S(=O)(=O)Nc3ccc(F)cc3)ccc2N1`, which Potency is on record?
Answer: inconclusive: 3.66 µM [falling, single point]

Question: For `CC(=O)Nc1ccc(NC(=O)c2cc(C3CC3)nc3c2cnn3C(C)C)cc1`, which lipid storage change, negative = inhibition is on record?
Answer: inconclusive

Question: For `COc1ccccc1N1CCN(C(=O)CSc2nc3ncnc(N)c3[nH]2)CC1`, which Potency is on record?
Answer: inconclusive: 16.4 µM [activator, partial curve]

Question: With `CCOC(=O)C1CCN(C(=O)c2ccc3nc(-c4ccc(OC)cc4)c(-c4ccc(OC)cc4)nc3c2)CC1` as the compound, how does the lipid storage change, negative = inhibition read?
Answer: inconclusive: -77.4%

Question: For `COC(=O)CC1C(=O)NCCN1C(=O)c1sc2ccccc2c1Cl` (configuration not stated), which Potency is on record?
Answer: inconclusive: 2.59 µM [falling, partial curve, poor fit]

Question: Which lipid storage change, negative = inhibition does the source give for `CCOC(=O)N1CCN(S(=O)(=O)c2ccc(-n3cnnn3)cc2)CC1` here?
Answer: inconclusive: 15.2%

Question: For `O=C(O)CCC(=O)N1CCc2c([nH]c3ccccc23)C1C(F)(F)F` (configuration not stated), which lipid storage change, negative = inhibition is on record?
Answer: inconclusive: 8.23%

Question: With `CC(C)CN(C(=O)CSc1nnc(-c2cccs2)n1N)c1c(N)n(Cc2ccccc2)c(=O)[nH]c1=O` as the compound, how does the lipid storage change, negative = inhibition read?
Answer: inconclusive: 26.4%

Question: With `CCCNC(=O)OC[C@H]1O[C@H](CCO/N=C/[C@@H](OC)[C@H](C)/C=C/CC(=O)OC)C=C[C@@H]1Oc1ccc(OC)cc1` as the compound, how does the lipid storage change, negative = inhibition read?
Answer: inconclusive: -2.47%

Question: With `CC(C)Cc1csc(NC(=O)C(C)C)c1C(=O)O` as the compound, how does the lipid storage change, negative = inhibition read?
Answer: inconclusive: 19.6%

Question: With `CSc1cccc(CNC(=O)C2CCC(=O)N(Cc3cccc(C(F)(F)F)c3)C2)c1` (configuration not stated) as the compound, how does the lipid storage change, negative = inhibition read?
Answer: inconclusive: 1.82%

Question: With `COc1cc(Cl)c(C)cc1NC(=O)CCCn1c(=O)oc2ccccc21` as the compound, how does the lipid storage change, negative = inhibition read?
Answer: inconclusive: -16.3%

Question: With `Cc1ccc(NS(=O)(=O)c2cccc(C(=O)NCC3CCCO3)c2)cc1` (configuration not stated) as the compound, how does the lipid storage change, negative = inhibition read?
Answer: inconclusive

Question: Which lipid storage change, negative = inhibition does the source give for `Cc1ccc(S(=O)(=O)c2c(N)n(/N=C/c3ccco3)c3nc4ccccc4nc23)cc1C` here?
Answer: inconclusive: -12.6%

Question: With `N/C(=N\c1nc2c(c(=O)[nH]1)CCCC2)Nc1ccccc1Sc1ccccc1` as the compound, how does the Potency read?
Answer: inconclusive: 0.291 µM [falling, full curve]

Question: Which Potency does the source give for `CC(C)c1nc(N2CCOCC2)c(C#N)c2c1CCCC2` here?
Answer: inconclusive: 29.1 µM [cytotoxic, single point]

Question: With `Cn1c(-c2ccc(Cl)nc2)nc2ccccc21` as the compound, how does the lipid storage change, negative = inhibition read?
Answer: inconclusive: 4.45%

Question: For `O=C(O)c1ccn(CSc2cc(Cl)ccc2Cl)n1`, which lipid storage change, negative = inhibition is on record?
Answer: inconclusive: -8.55%

Question: Which Potency does the source give for `CC(=O)Nc1ccc(-c2csc(N/N=C\c3ccncc3)n2)cc1` here?
Answer: inconclusive: 0.731 µM [activator, single point]

Question: For `CN1CCCC(OC(=O)c2ccccc2F)C1` (configuration not stated), which lipid storage change, negative = inhibition is on record?
Answer: inconclusive: 62.5%

Question: For `CC1CCN(Cc2cc(=O)oc3cc(O)c(Cl)cc23)CC1`, which Potency is on record?
Answer: inconclusive: 0.731 µM [falling, single point]

Question: For `CC1CN(C(=O)CCNC(=O)c2ccc(Cl)cc2)CC(C)O1` (configuration not stated), which lipid storage change, negative = inhibition is on record?
Answer: inconclusive: 28.4%

Question: With `O=C(COc1ccc(C(=S)N2CCCC2)cc1)Nc1ccc(F)cc1` as the compound, how does the Potency read?
Answer: inconclusive: 0.58 µM [activator, single point]

Question: Which Potency does the source give for `CCOC(=O)c1ccccc1NC(=O)c1cc2sccc2n1C` here?
Answer: inconclusive: 6.51 µM [rising, single point]

Question: Which Potency does the source give for `CCC(=O)c1ccc(OCC(=O)OCC(=O)NCCCc2ccccc2)cc1` here?
Answer: inconclusive: 5.8 µM [activator, full curve]

Question: Which lipid storage change, negative = inhibition does the source give for `O=C(c1cc(-c2ccccn2)nc2c(Cl)cccc12)N1CCN(C(=O)C2CCCO2)CC1` (configuration not stated) here?
Answer: inconclusive: -46.7%

Question: Which Potency does the source give for `O=Cc1cn(Cc2ccccc2)nc1-c1cccnc1` here?
Answer: inconclusive: 6.51 µM [activator, single point]

Question: Which lipid storage change, negative = inhibition does the source give for `O=C(Nc1nnc(-c2ccccc2F)s1)C1CCN(S(=O)(=O)c2ccc(Cl)cc2)CC1` here?
Answer: inconclusive: 10%

Question: Which Potency does the source give for `COC(=O)CN(c1c(C)cccc1C)S(C)(=O)=O` here?
Answer: inconclusive: 18.4 µM [falling, single point]

Question: With `COC(=O)c1ccsc1NC(=O)CCc1ccccc1` as the compound, how does the lipid storage change, negative = inhibition read?
Answer: inconclusive: 18.4%

Question: For `Cc1cccc(N2CCN(Cc3nc(CC4CC4)no3)CC2)n1`, which lipid storage change, negative = inhibition is on record?
Answer: inconclusive: 15.3%

Question: For `O=C(c1cc([N+](=O)[O-])ccc1Cl)N1c2ccccc2Sc2ccccc21`, which Potency is on record?
Answer: inconclusive: 3.66 µM [activator, full curve]

Question: With `COc1ccc(NS(=O)(=O)c2cccc(C(=O)N/N=C/c3cccs3)c2)cc1` as the compound, how does the Potency read?
Answer: inconclusive: 23.1 µM [falling, single point]

Question: For `Cc1cc(C)nc(Sc2c(C)n[nH]c2C)n1`, which Potency is on record?
Answer: inconclusive: 6.51 µM [activator, single point]

Question: For `Cc1ccc(-c2nc(SCC(=O)NCC3CCCO3)c(-c3ccc(C)cc3)[nH]2)cc1` (configuration not stated), which lipid storage change, negative = inhibition is on record?
Answer: inconclusive: 23.2%

Question: With `Cc1ccc(S(=O)(=O)N2CCCC2)cc1C(=O)NCCOc1ccccc1` as the compound, how does the Potency read?
Answer: inconclusive: 1.3 µM [falling, full curve, poor fit]
